Patent US7253165B2, “Benzisoxazolyl-, pyridoisoxazolyl-and benzthienyl-phenoxy derivatives useful as D4 antagonists” (Aventis Pharmaceuticals Inc., priority 1999, dated 2007)
The match of structure and compound is tentative.

Amino acid sequences for entries named in this document (tags omitted). Chains listed by the source or under a name are the forms on record and can include a tag or linker.
UniProt P21917, with tags, fused parts or gaps DEL265-296: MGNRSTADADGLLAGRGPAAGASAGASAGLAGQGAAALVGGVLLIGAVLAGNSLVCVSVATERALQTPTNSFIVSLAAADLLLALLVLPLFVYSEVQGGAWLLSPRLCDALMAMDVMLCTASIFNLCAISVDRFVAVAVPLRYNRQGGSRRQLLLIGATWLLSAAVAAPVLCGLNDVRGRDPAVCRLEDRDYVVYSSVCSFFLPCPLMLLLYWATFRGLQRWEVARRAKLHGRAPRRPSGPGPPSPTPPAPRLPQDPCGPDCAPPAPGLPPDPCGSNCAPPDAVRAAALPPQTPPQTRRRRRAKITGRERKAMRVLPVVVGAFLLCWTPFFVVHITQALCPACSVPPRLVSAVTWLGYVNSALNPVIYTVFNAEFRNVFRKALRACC

Molecular target: human D4 receptor (D4.2 sub-type) (Homo sapiens, UniProt P21917, DEL265-296)
Test: D4 receptor binding assay, displacement of 3H-spiperone
Conditions: read-out: D4 RBA Ki; 3H-spiperone 0.25 nM, membranes of HEK cells transfected with human D4.2; * = HCl salt
Method: D4 receptor-binding affinities of the compounds were evaluated according to their ability to reduce binding of ^3H-spiperone as compared to the reference compound clozapine. The potency of the test compound to reduce ^3H-spiperone binding directly correlated to its binding affinity for the receptor.
[…] (human embryonic kidney) cells stably transfected with human D4 receptor (D4.2 sub-type) were grown in NUNC cell factories for 5 days (75% confluency) without a media change and removed with versene (approximately 19 mg of cells per cell factory tray). The cells were then centrifuged in a Sorval centrifuge for 10 min, 5000 rpm (GS3 rotor) and the pellets quickly frozen in liquid nitrogen and stored at −80° C. until used in binding assay. When used in the assay, cells were thawed on ice for 20 min and then 10 mL of incubation buffer (50 mM Tris, 1 mM EDTA, 4 mM MgCl2, 5 mM KCl, 1.5 mM CaCl2, 120 mM NaCl, pH 7.4) was added. The cells were then vortexed to resuspend pellet and homogenized with a Kinematica, CH-6010 Kriens-LU, homogenizer for 15 seconds at setting 7. Concentration of receptor protein was determined using the Pierce BCA assay.
The incubation was started by the addition of 100 μl (50 μg protein) membrane homogenate to a solution of 300 μl incubation buffer and 100 μl (0.25 nM final conc.) ^3H-spiperone (90 Ci/mmol, Amersham, diluted in borosilicate glass vial) in 96-well polypropylene plates (1 ML per well). […] The plates were sealed and counted in the Packard Top Count (3 minutes per well).
The incubation was started by the addition of 100 μl (50 μg protein) membrane homogenate to a solution of 200 μl incubation buffer, 100 μl ^3H-spiperone (90 Ci/mmol, Amersham, diluted in borosilicate glass vial to 0.25 nM final conc.) and 100 μl (30 μM final conc.) of fresh dopamine (Research Biochemicals Inc., light protected and dissolved in incubation buffer) in 96-well polypropylene plates (1 mL per well). […] The filters were washed and counted using the same procedure as in the total binding assay described above to give the non-specific binding value (NSB). […]

Fc1ccc2c(-c3ccc(OCCCN4CCCCC4)cc3)noc2c1
Ki: 9.8 nM

O[C@@H](COc1ccc(-c2noc3cc(F)ccc23)cc1)CN1CCOCC1 [Example 24, (R)-1-[4-(6-fluoro-benzo[d]isoxazol-3-yl)-phenoxy]-3-morpholin-4-yl-propan-2-ol]
Ki: 88 nM

O[C@@H](COc1ccc(-c2noc3cc(F)ccc23)cc1)CN1CCN(c2ccccc2)CC1 [Example 26, (R)-1-[4-(6-fluoro-benzo[d]isoxazol-3-yl)-phenoxy]-3-(4-phenyl-piperazin-1-yl)-propan-2-ol]
Ki: 17 nM
